± gives the standard deviation of the averaged measurements. Values are relative to the signal before dosing, not to a vehicle control; the signal also falls without drug.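 Fibroblast labels name human fibroblasts: mostly primary ones from tissues such as uterus (C12385, HUF), lung (H6013), bone (Hs27A), adrenal (HADF) and skin (WS1), plus mammary HMF and breast cancer-associated Hs343T. The cancer cells are basal-like or mesenchymal-like triple-negative breast cancer lines. The paper calls a changed response a hit when it shifts by more than 3x the replicate standard deviation. The tissue of the other fibroblasts is not given here.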
Tested on: MDAMB436
Experiment: relative JC-1 red fluorescence (viability) vs pre-drug, coculture with fibroblast (fraction); higher = more viable cancer cells
Conditions: 10 µM
Procedure: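 JC-1 labelled TNBC cells cocultured 1:1 (1,500 cells each) with CellTrace Violet stained primary or stromal fibroblasts in 384-well plates in FluoroBrite medium, treated with one of 42 anticancer drugs at 0.1, 1, 10 or 100 uM. JC-1 red fluorescence (mitochondrial integrity in cancer cells only) was read by plate reader every 8 h for 72 h. Values are normalised to each well's pre-drug value. The stock of one drug was tenfold lower, so its dose labels may be too high.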

CC(C)C[C@H](NC(=O)[C@H](Cc1ccccc1)NC(=O)c1cnccn1)B(O)O [Bortezomib]
relative JC-1 red fluorescence
Conditions	8 h	16 h	24 h	32 h	40 h	48 h	56 h	64 h	72 h
coculture fibroblast: C12385	0.7944 ± 0.0015	0.764 ± 0.0085	0.753 ± 0.012	0.66 ± 0.021	0.616 ± 0.022	0.594 ± 0.0093	0.571 ± 0.02	0.552 ± 0.02	0.548 ± 0.022
coculture fibroblast: H6013	0.823 ± 0.015	0.8103 ± 0.0078	0.805 ± 0.01	0.8146 ± 0.0045	0.8253 ± 0.0019	0.878 ± 0.017	0.867 ± 0.028	0.878 ± 0.033	0.854 ± 0.046
coculture fibroblast: H6019	0.762 ± 0.012	0.736 ± 0.03	0.779 ± 0.06	0.768 ± 0.071	0.78 ± 0.073	0.806 ± 0.08	0.815 ± 0.084	0.84 ± 0.095	0.853 ± 0.093
coculture fibroblast: H6076	0.65 ± 0.034	0.6 ± 0.01	0.615 ± 0.0095	0.609 ± 0.019	0.638 ± 0.027	0.647 ± 0.015	0.703 ± 0.025	0.708 ± 0.019	0.729 ± 0.011
coculture fibroblast: H6231	0.769 ± 0.019	0.608 ± 0.025	0.67 ± 0.043	0.596 ± 0.048	0.597 ± 0.056	0.57 ± 0.047	0.571 ± 0.05	0.559 ± 0.044	0.555 ± 0.05
coculture fibroblast: HADF	0.777 ± 0.019	0.734 ± 0.045	0.694 ± 0.073	0.648 ± 0.087	0.632 ± 0.098	0.656 ± 0.1	0.602 ± 0.1	0.596 ± 0.11	0.558 ± 0.11
coculture fibroblast: HCFa	0.803 ± 0.017	0.768 ± 0.011	0.751 ± 0.0097	0.7214 ± 0.0048	0.7192 ± 0.00099	0.7474 ± 0.0034	0.7004 ± 0.0017	0.69644 ± 0.00023	0.64 ± 0.011
coculture fibroblast: HCPF	0.669 ± 0.019	0.629 ± 0.0015	0.639 ± 0.011	0.5864 ± 0.0013	0.573 ± 0.0096	0.539 ± 0.0086	0.533 ± 0.0086	0.522 ± 0.0071	0.52 ± 0.0058
coculture fibroblast: HHSteC	0.7905 ± 0.0061	0.7782 ± 0.00094	0.77 ± 0.012	0.737 ± 0.0098	0.737 ± 0.015	0.77 ± 0.016	0.72 ± 0.021	0.722 ± 0.029	0.678 ± 0.035
coculture fibroblast: HMF	0.668 ± 0.051	0.634 ± 0.048	0.61 ± 0.035	0.569 ± 0.013	0.553 ± 0.012	0.526 ± 0.033	0.539 ± 0.053	0.522 ± 0.062	0.53 ± 0.073
coculture fibroblast: HPFa	0.955 ± 0.06	0.872 ± 0.019	0.828 ± 0.03	0.785 ± 0.071	0.773 ± 0.11	0.79 ± 0.13	0.729 ± 0.13	0.732 ± 0.14	0.689 ± 0.14
coculture fibroblast: HUF	0.829 ± 0.011	0.737 ± 0.0081	0.7038 ± 0.0027	0.6437 ± 0.0046	0.5934 ± 0.0017	0.576 ± 0.0043	0.5648 ± 0.0012	0.558 ± 0.0073	0.557 ± 0.0079
coculture fibroblast: Hs5	0.761 ± 0.064	0.6851 ± 0.0046	0.6486 ± 0.006	0.581 ± 0.028	0.553 ± 0.039	0.511 ± 0.041	0.519 ± 0.043	0.492 ± 0.039	0.492 ± 0.045
coculture fibroblast: Hs27A	0.845 ± 0.017	0.7969 ± 0.0065	0.814 ± 0.03	0.813 ± 0.044	0.805 ± 0.059	0.876 ± 0.073	0.802 ± 0.081	0.794 ± 0.08	0.723 ± 0.071
coculture fibroblast: Hs343T	0.671 ± 0.059	0.638 ± 0.049	0.633 ± 0.0098	0.6 ± 0.019	0.606 ± 0.047	0.587 ± 0.07	0.6 ± 0.056	0.599 ± 0.058	0.614 ± 0.06
coculture fibroblast: WS1	0.77851 ± 0.00012	0.742 ± 0.013	0.718 ± 0.028	0.646 ± 0.027	0.614 ± 0.023	0.583 ± 0.032	0.569 ± 0.033	0.548 ± 0.034	0.537 ± 0.042

From the supplement of paper PMC6078165
